Several values for one entry are separate records, joined by “and”; a condition that tells them apart may be missing. Equal entries are not always repeated. Out of some 390,000 compounds screened, about 4,000 (1%) were called active. Inconclusive means that the source gave no clear call. Such entries were picked first, then a sample of the others. Calls come from the whole dose curve; as a rule, active = well fitted inhibition curve with a large enough effect; inconclusive = small, poorly fitted or top-dose-only effect, or another doubt; inactive = no such curve, though single readings can be large or run the other way. Potencies beside an inconclusive call are fits to weak or partial responses and may not hold up.
Target: DNA polymerase iota (Homo sapiens) (UniProt Q9UNA4)
Assay: qHTS for Inhibitors of Polymerase Iota
Details: Pol iota fluorescent replication assay, 10 min; series mostly up to 115 µM
Method in brief: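 Pol iota at 10 nM preincubated 15 min with compounds at room temperature; reaction started with fluorescent substrate, 50 nM final. Fluorescence read kinetically at 0 and 10 min; buffer-only wells as negative control.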
Potency is the fitted concentration of half-maximal effect.

By UniProt entry, the sequences of proteins in these tests, tags left out. Where a name states a change or a piece, a line headed by the entry shows the natural chain unless it says otherwise.
UniProt Q9UNA4: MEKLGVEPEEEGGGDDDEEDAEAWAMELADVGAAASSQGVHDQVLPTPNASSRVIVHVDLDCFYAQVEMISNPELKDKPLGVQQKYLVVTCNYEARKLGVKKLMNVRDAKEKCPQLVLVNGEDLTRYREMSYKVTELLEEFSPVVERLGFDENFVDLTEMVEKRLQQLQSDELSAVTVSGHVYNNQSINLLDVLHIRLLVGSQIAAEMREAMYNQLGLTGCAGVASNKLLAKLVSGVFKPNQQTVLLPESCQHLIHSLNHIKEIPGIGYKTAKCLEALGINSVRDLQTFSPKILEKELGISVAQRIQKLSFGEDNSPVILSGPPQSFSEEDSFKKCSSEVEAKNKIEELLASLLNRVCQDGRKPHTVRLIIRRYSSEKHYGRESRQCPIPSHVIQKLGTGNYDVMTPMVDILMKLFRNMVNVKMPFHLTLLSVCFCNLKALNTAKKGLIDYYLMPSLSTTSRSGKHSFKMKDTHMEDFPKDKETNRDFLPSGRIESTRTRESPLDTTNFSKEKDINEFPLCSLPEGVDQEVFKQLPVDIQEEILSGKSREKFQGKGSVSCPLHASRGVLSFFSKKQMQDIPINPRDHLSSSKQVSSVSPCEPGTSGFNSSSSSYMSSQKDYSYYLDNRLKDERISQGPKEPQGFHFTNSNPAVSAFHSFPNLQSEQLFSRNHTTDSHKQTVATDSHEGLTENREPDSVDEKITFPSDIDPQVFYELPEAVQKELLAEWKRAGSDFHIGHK

Potency, inconclusive:
C=CCc1cccc(/C=N/c2ncccc2O)c1O 11.2 µM [inhibitor, full curve, poor fit]
COc1ccc2c(c1)c(C(=O)CN1CCOCC1)c(C)n2C 6.31 µM [inhibitor, single point]
NC(=O)c1ccsc1NC(=O)COC(=O)c1nc(Cl)ccc1Cl 35.5 µM [inhibitor, single point]
C[N+]1(CC(=O)c2ccc(O)c(O)c2)CCOCC1 89.1 µM [inhibitor, partial curve, poor fit]
O=C1c2cc(Br)ccc2N(Cc2ccc(Br)cc2)S(=O)(=O)C1c1cc(Cl)c(Cl)cc1[N+](=O)[O-] (centres undefined) 4.47 µM [inhibitor, full curve, poor fit]
COc1cccc(-c2cnc(OC(C)(C)C)nc2OC(C)(C)C)c1 100 µM [inhibitor, single point]
CCN1C(=O)/C(=C\c2ccc(-c3ccc([N+](=O)[O-])cc3OC)o2)SC1=Nc1cccc(C(=O)O)c1 11.2 µM [inhibitor, partial curve]
CCc1nnc(NC(=O)c2nc(S(=O)(=O)Cc3ccccc3)ncc2Cl)s1 25.1 µM [inhibitor, partial curve, poor fit]
CNC[C@H](CC1CCCCC1)NC[C@H](NCCC1CCCC1)[C@H](C)O 39.8 µM [inhibitor, single point]
O=C(C[n+]1cccc(Cl)c1)c1ccc(O)c(O)c1 89.1 µM [inhibitor, partial curve, poor fit]
COc1ccc(C2=CC3=C(Br)C(=O)C(C)(OC(=O)c4cccs4)C(=O)C3=CO2)cc1 (centres undefined) 11.2 µM [inhibitor, full curve, poor fit]
CCOc1ccc(NC(=O)CC2C(=O)N(c3cccc(OC)c3)C(=O)N2C2CCCCC2)cc1 (centres undefined) 89.1 µM [inhibitor, partial curve, poor fit]
CC(C)CC(=O)Nc1ncc([N+](=O)[O-])s1 15.8 µM [inhibitor, partial curve, poor fit]
CCOC(=O)CSC1=NC(=O)/C(=C\c2ccc(OC(C)=O)cc2)S1 20 µM [inhibitor, partial curve, poor fit]
N#C/C(=C\c1cccc(OCC(=O)O)c1)c1nc2ccccc2[nH]1 28.2 µM [inhibitor, single point]
CC(C)(C)n1nnnc1C(c1ccncc1)N1CCN(c2ccc(O)cc2)CC1 (centres undefined) 50.1 µM [inhibitor, partial curve, poor fit]
Cc1c(C2(c3cc(C(C)C)c(O)c(Br)c3C)OS(=O)(=O)c3ccccc32)cc(C(C)C)c(O)c1Br 25.1 µM [inhibitor, full curve, poor fit]
COc1ccc(C2Nc3ccccc3NC3=C2C(=O)CC(C)(C)C3)cc1O (centres undefined) 31.6 µM [inhibitor, single point]
CCOc1cccc(SCc2noc(C(=O)NCC3CCCO3)c2C(=O)O)c1 (centres undefined) 35.5 µM [inhibitor, single point]
COc1ccccc1N1C(=O)C2C(c3ccccc3F)NN(C(=O)c3ccc(C)cc3)C2C1=O (centres undefined) 31.6 µM [inhibitor, partial curve, poor fit]
Cc1ccc(-c2[nH]c3ccccc3c2C(C[N+](=O)[O-])c2ccco2)cc1 (centres undefined) 44.7 µM [inhibitor, partial curve, poor fit]
O=C1C(Cc2ccccc2)Nc2ncnc(N3CCCCC3)c2N1Cc1ccc(Cl)cc1 (centres undefined) 22.4 µM [inhibitor, full curve, poor fit]
CCCN(C(=O)CCn1cnc2onc(-c3ccc(F)cc3)c2c1=O)c1ccccc1C 89.1 µM [inhibitor, single point]
COc1cc(-c2noc(C)c2-c2ccc(N(C)C)nc2)cc(OC)c1OC 7.94 µM [inhibitor, full curve]
NC1=NC(=O)C(CC(=O)Nc2ccc3c(c2)OCO3)S1 (centres undefined) 44.7 µM [inhibitor, partial curve]
Cc1cc(C)cc(NC(=O)Cn2nnc(C(=O)NCc3ccco3)c2N)c1 56.2 µM [inhibitor, partial curve, poor fit] and 79.4 µM [inhibitor, partial curve, poor fit]
O=C1c2ccccc2C(=O)N1OCCOCCOCCBr 79.4 µM [inhibitor, partial curve]
O=C(NNC(=O)c1ccc2ccccc2c1)c1cccc(Br)c1 79.4 µM [inhibitor, partial curve, poor fit]
CC(C)Sc1oc(-c2ccco2)nc1S(=O)(=O)c1ccccc1 25.1 µM [inhibitor, full curve]
O=C1Nc2c(ccc(Cl)c2Cl)C(=O)C1(F)c1ccccc1 (centres undefined) 25.1 µM [inhibitor, single point]

Potency, inactive:
COc1ccc(Cl)cc1NC(=O)C(C)n1nnc2sc3c(c2c1=O)CCCC3 (centres undefined)
CCC(C(=O)OCC(=O)Nc1cc(OC)ccc1OC)c1ccccc1 (centres undefined)
O=C(Oc1ccc(Nc2ncnc3ccccc23)cc1)c1cccnc1
O=C1c2ccccc2C(=O)N1Nc1ccccc1
COc1cc(/C=N/Nc2ccccc2[N+](=O)[O-])cc(OC)c1O
O=C(NC(=S)Nc1ccccc1Cl)c1ccco1
CCOC(=O)c1c(-c2ccccc2)csc1NC(=O)c1cc(-c2cccc(OC)c2)on1
O=C(CCCCCNC(=O)N1CCn2c1nc1ccccc12)N[C@@H](C(=O)O)c1ccccc1
CCCCCOc1ccc2oc(=O)c3c(c2c1)CCCN3C(=O)CN1CCCC(C(=O)OCC)C1 (centres undefined)

3 compounds drawn at random from those above:
Potency, inactive:
COc1cc(/C=N/Nc2ccccc2[N+](=O)[O-])cc(OC)c1O
O=C(CCCCCNC(=O)N1CCn2c1nc1ccccc12)N[C@@H](C(=O)O)c1ccccc1
CCCCCOc1ccc2oc(=O)c3c(c2c1)CCCN3C(=O)CN1CCCC(C(=O)OCC)C1 (centres undefined)

2 neighbouring records out of the list so far:
Potency, inactive:
O=C(Oc1ccc(Nc2ncnc3ccccc23)cc1)c1cccnc1
O=C1c2ccccc2C(=O)N1Nc1ccccc1

From PubChem BioAssay AID588590 (National Center for Advancing Translational Sciences (NCATS), 2011)
